In US20040086949A1 (Statens Serum Institut, priority 1998, published 2004):

Assay: general procedure: Fmoc solid-phase peptide synthesis; TentaGel S NH2 with HMPA linker; DIC/HOAt; TBTU; PyAOP/DIEA
Conditions: whole synthesis

In the case of “HC(CH2CO-LysGluProAsnLysGlyValAsnProAspGluValβAla)2COOH”, the isolated yield was “approx. 20% yield”.
